Data as given in article PMC2680043, “Characterization of a Novel Small Molecule Subtype Specific Estrogen-Related Receptor α Antagonist in MCF-7 Breast Cancer Cells” (PLoS ONE, 2009).
No constants are given. Whether binding was seen depends on the method and setting. In cells and extracts the contact can be indirect. Some binding calls cover weakened binding; strength is not graded here.

Sequences of proteins named here, by UniProt entry; tags and fusion partners are left off. Residues count along the entry.
UniProt Q9Y6Q9, residues 557-773: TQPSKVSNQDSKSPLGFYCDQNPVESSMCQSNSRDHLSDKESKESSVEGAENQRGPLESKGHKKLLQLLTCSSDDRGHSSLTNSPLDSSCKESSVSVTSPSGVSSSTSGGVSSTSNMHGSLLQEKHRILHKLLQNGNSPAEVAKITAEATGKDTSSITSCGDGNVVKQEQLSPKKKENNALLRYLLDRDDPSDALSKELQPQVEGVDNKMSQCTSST
UniProt Q61026, residues 565-798: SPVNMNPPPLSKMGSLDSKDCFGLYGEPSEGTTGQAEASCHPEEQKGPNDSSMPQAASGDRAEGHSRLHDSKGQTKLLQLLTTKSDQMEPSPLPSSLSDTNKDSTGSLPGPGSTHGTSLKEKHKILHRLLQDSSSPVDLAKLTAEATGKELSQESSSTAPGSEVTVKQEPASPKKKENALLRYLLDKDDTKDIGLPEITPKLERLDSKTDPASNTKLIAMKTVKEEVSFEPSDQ

Columns and labels:
Assay in all cases: pull-down; biotinylated coactivator RID bound to streptavidin beaded agarose; in vitro translated [35S]-labeled ERRα added in 1x TBS with DMSO (control), 4 hours at 4°C; SDS gel, phosphorimaging; only the target purified
[1] = biological target: AIB1 receptor interaction domain (RID), aa 557-773, biotinylated (UniProt Q9Y6Q9)
[2] = biological target: GRIP-1 receptor interaction domain (RID), aa 565-798, biotinylated (UniProt Q61026)
[3] = biological target: T1, PGC-1α receptor interaction domain (RID), aa 1-338, biotinylated (UniProt Q9UBK2)
T1 sequence (chain, biotinylated (sites not stated)): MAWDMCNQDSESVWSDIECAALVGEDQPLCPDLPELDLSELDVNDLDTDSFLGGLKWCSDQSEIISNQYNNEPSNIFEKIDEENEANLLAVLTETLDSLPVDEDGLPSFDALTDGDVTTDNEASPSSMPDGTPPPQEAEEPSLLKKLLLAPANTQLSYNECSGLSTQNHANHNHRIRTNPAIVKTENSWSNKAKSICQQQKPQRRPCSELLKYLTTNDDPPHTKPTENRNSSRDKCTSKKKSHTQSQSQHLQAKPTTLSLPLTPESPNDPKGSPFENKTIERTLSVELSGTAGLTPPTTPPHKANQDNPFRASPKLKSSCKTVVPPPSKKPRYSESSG

Measured: binding

B1: full-length human estrogen-related receptor α (ERRα), [35S]methionine-labeled (receptor, UniProt P11474 1-423, looked up)
chain: MSSQVVGIEPLYIKAEPASPDSPKGSSETETEPPVALAPGPAPTRCLPGHKEEEDGEGAGPGEQGGGKLVLSSLPKRLCLVCGDVASGYHYGVASCEACKAFFKRTIQGSIEYSCPASNECEITKRRRKACQACRFTKCLRVGMLKEGVRLDRVRGGRQKYKRRPEVDPLPFPGPFPAGPLAVAGGPRKTAAPVNALVSHLLVVEPEKLYAMPDPAGPDGHLPAVATLCDLFDREIVVTISWAKSIPGFSSLSLSDQMSVLQSVWMEVLVLGVAQRSLPLQDELAFAEDLVLDEEGARAAGLGELGAALLQLVRRLQALRLEREEYVLLKALALANSDSVHIEDAEAVEQLREALHEALLEYEAGRAGPGGGAERRRAGRLLLTLPLLRQTAGKVLAHFYGVKLEGKVPMHKLFLEMLEAMMD
modifications: [35S]methionine label
notes: estrogen-related receptor alpha, human, full length, amplified from human brain Marathon-ready cDNA and cloned into pcDNA3.1(+); No tag is named for this construct; also called hERRα; ESRRA; source: in vitro translated (TnT coupled reticulocyte lysate system, Promega), [35S]methionine added
binds: all assays above
